{"source": "patent US20230058557A1", "about": "“TRANSPLANTED CELL PROTECTION VIA INHIBITION OF POLYMORPHONUCLEAR CELLS” (The Regents of the University of California, priority 2020, published 2023)", "test_system": "human PMNs", "assay_type": "cell-based", "conditions": "IL-2 stimulated human PMNs; cyclosporine 400 ng/ml (high) and 40 ng/ml (low)", "experimental": "A comprehensive human immune assay was established using the XCelligence in vitro impedance system that obtains real-time kinetics of target cell killing. (ACEA BioSciences, San Diego, Calif., Catalog No. 00380601040). Wild-type (wt) and engineered iPSCs were differentiated into endothelial cells for this assay. […] Some experimental groups were treated with IL-2 (1 ng/ml), which is a central cytokine involved in allograft rejection. The assays were run for a duration of 90 h which is the maximum time period iECs can be cultured in this system before the monolayer breaks down spontaneously.\nThe immune system not only distinguishes between “self” and “non-self”, but also reacts to “danger” signals: released by autologous cells in distress. Matzinger, Ann. Rev. Immunol. 12:991-1045 (1994), incorporated by reference herein in its entirety. Intracellular components, released by damaged cells, can act as adjuvants and boost immune activation to alarm the immune system of cell death. Because apoptosis activates programmed cell death pathways aimed at digesting intracellular proteins, apoptotic cells are considered weak releasers of danger signals. […]\nLigands for CD200R and PIRLα are CD200 and CD99, respectively. […] The human PMNs were activated via DAMPs or IL-2 and the killing of human wt and HIP iECs was assessed (FIG. 8). […]", "note": "Entries after “also recorded” stand apart in the source; their conditions may differ. For at least one compound, name, drawing or mass did not settle the structure."}
{"smiles": "C[C@@H]1C[C@H]2[C@@H]3CCC4=CC(=O)C=C[C@]4(C)[C@@]3(F)[C@@H](O)C[C@]2(C)[C@@]1(O)C(=O)CO", "note": "[dexamethasone]", "values": [{"measurement": "PMN killing of wt, dKO and HIP iECs", "value": "reduced, but did not eliminate; also recorded: some minor efficacy to reduce PMN killing"}]}
